At least one peptide structure holds a part that was inferred or is arguable (an end, a ring closure or a residue). Residues, ends and D or L forms follow the SMILES beside them.
Experiments:
[1] = system: spleen and lymph nodes; assay: Size of spleen and lymph nodes in chronic contact dermatitis mouse model; type: in vivo; conditions: DNCB mice, 100 μg applied daily for 3 weeks, compared to the positive control group
[2] = system: STAT1; assay: Western blot, phosphorylation of STAT1 in TNF-α/IFN-γ treated HaCaT cells; type: cell-based, human; conditions: TNF-α/IFN-γ 10 ng/ml together with peptide 10 μg/ml, 24 hours
[3] = system: MAPK/ERK signaling pathway; assay: Western blot, phosphorylation of key proteins in the MAPK/ERK signaling pathway in TNF-α/IFN-γ treated HaCaT cells; type: cell-based, human; conditions: TNF-α/IFN-γ 10 ng/ml together with peptide 10 μg/ml, 24 hours
[4] = system: GMCSF; assay: PCR, transcription inhibition of GMCSF in TNF-α/IFN-γ treated HaCaT cells; type: cell-based, human; conditions: TNF-α/IFN-γ 10 ng/ml together with peptide 10 μg/ml, 24 hours
[5] = system: IL-31; assay: Real-time PCR, transcription inhibition of IL-31 in TNF-α/IFN-γ treated HaCaT cells; type: cell-based, human; conditions: TNF-α/IFN-γ 10 ng/ml together with peptide 10 μg/ml, 24 hours
[6] = system: chronic contact dermatitis-developed mice; assay: DNCB-induced chronic contact dermatitis mouse model, skin condition; type: in vivo; conditions: 100 μg applied daily on dorsal skin
[7] = system: TSLP; assay: Real-time PCR, transcription inhibition of TSLP in TNF-α/IFN-γ treated HaCaT cells; type: cell-based, human; conditions: TNF-α/IFN-γ 10 ng/ml together with peptide 10 μg/ml, 24 hours
[8] = system: CCL22; assay: PCR, transcription inhibition of CCL22 in TNF-α/IFN-γ treated HaCaT cells; type: cell-based, human; conditions: TNF-α/IFN-γ 10 ng/ml together with peptide 10 μg/ml, 24 hours
[9] = system: JAK2; assay: Western blot, phosphorylation of JAK2 in TNF-α/IFN-γ treated HaCaT cells; type: cell-based, human; conditions: TNF-α/IFN-γ 10 ng/ml together with peptide 10 μg/ml, 24 hours
[10] = system: CCL17; assay: PCR, transcription inhibition of CCL17 in TNF-α/IFN-γ treated HaCaT cells; type: cell-based, human; conditions: TNF-α/IFN-γ 10 ng/ml together with peptide 10 μg/ml, 24 hours
[11] = system: KDM6B; assay: PCR, transcription inhibition of KDM6B in TNF-α/IFN-γ treated HaCaT cells; type: cell-based, human; conditions: TNF-α/IFN-γ 10 ng/ml together with peptide 10 μg/ml, 24 hours

## C[C@@H](O)[C@H](NC(=O)[C@@H](N)CCCCN)C(=O)N[C@@H](Cc1ccccc1)C(=O)N[C@@H](CCCNC(=N)N)C(=O)O [novel peptide, KTFR] (H-KTFR-OH)
[1]
  size of the lymph nodes: decreased remarkably to a degree similar to the negative control group
  size of the spleen: decreased remarkably to a degree similar to the negative control group
[2]
  phosphorylation of STAT1 (Western blot): significantly reduced
[3]
  phosphorylation of the key proteins in the MAPK/ERK signaling pathway (Western blot): did not change
[4]
  transcription of GMCSF (PCR): transcription inhibition
[5]
  IL-31 reduction (real-time PCR): highly effective
[6]; after a total of 3 weeks of treatment
  symptoms of skin inflammation: alleviated to almost the same extent as normal skin
[6]; treatment period of about a week
  symptoms of skin inflammation: significantly relieved
[7]
  TSLP reduction (real-time PCR): highly effective
[8]
  transcription of CCL22 (PCR): transcription inhibition
[9]
  phosphorylation of JAK2 (Western blot): significantly reduced
[10]
  transcription of CCL17 (PCR): transcription inhibition
[11]
  transcription of KDM6B (PCR): transcription inhibition

Reference: patent US20240374673A1, “PHARMACEUTICAL COMPOSITION FOR PREVENTING OR TREATING INFLAMMATORY SKIN DISEASE” (3BIGS CO., LTD., priority 2021, published 2024)
